Experimental data taken from PMC9132907.
Results are given in words; binding and its absence hold for the method and conditions named. Binding seen in cells or lysates may run through a third protein. A result given as binding can be weak or reduced; the word gives no strength. Where a sequence is shown, tags or fusion partners need not be part of it.

Protein sequences, listed by entry. Tags and fused reporters are not part of them. Lines headed by an entry give the natural chain unless they say otherwise; changes in a name come on top.
UniProt O15205: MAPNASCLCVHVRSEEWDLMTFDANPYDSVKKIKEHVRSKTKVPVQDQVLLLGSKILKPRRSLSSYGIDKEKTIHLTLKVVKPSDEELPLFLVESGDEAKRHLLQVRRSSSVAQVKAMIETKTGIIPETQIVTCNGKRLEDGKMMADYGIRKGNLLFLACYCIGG

Biological target: HA-FAT10ΔGG (UniProt O15205)
Experiment: co-IP; PANC-1 and BxPC-3 cells co-transfected with Flag-FOXM1 and HA-FAT10 or HA-FAT10ΔGG; Flag-FOXM1 bound to the HA-tagged protein detected

B1: Flag-FOXM1 (protein, UniProt Q08050 1-763)
chain: MKTSPRRPLILKRRRLPLPVQNAPSETSEEEPKRSPAQQESNQAEASKEVAESNSCKFPAGIKIINHPTMPNTQVVAIPNNANIHSIITALTAKGKESGSSGPNKFILISCGGAPTQPPGLRPQTQTSYDAKRTEVTLETLGPKPAARDVNLPRPPGALCEQKRETCADGEAAGCTINNSLSNIQWLRKMSSDGLGSRSIKQEMEEKENCHLEQRQVKVEEPSRPSASWQNSVSERPPYSYMAMIQFAINSTERKRMTLKDIYTWIEDHFPYFKHIAKPGWKNSIRHNLSLHDMFVRETSANGKVSFWTIHPSANRYLTLDQVFKPLDPGSPQLPEHLESQQKRPNPELRRNMTIKTELPLGARRKMKPLLPRVSSYLVPIQFPVNQSLVLQPSVKVPLPLAASLMSSELARHSKRVRIAPKVLLAEEGIAPLSSAGPGKEEKLLFGEGFSPLLPVQTIKEEEIQPGEEMPHLARPIKVESPPLEEWPSPAPSFKEESSHSWEDSSQSPTPRPKKSYSGLRSPTRCVSEMLVIQHRERRERSRSRRKQHLLPPCVDEPELLFSEGPSTSRWAAELPFPADSSDPASQLSYSQEVGGPFKTPIKETLPISSTPSKSVLPRTPESWRLTPPAKVGGLDFSPVQTSQGASDPLPDPLGLMDLSTTPLQSAPPLESPQRLLSSEPLDLISVPFGNSSPSDIDVPKPGSPEPQVSGLAANRSLTEGLVLDTMNDSLSKILLDISFPGLDEDPLGPDNINWSQFIPELQ
Q: Which binding does the source give for B1 here?
A: binds
